Results published in doi:10.1101/636712.
Where two headings read alike, the source gives them in different places. These are yes or no findings as the source states them, for the method shown. Binding seen in cells or lysates may run through a third protein. Some entries that bind do so weakly or less than the wild type. For some of these results: Tags and fused reporters may be left off the sequences shown.

Amino acid sequences for entries named in this document (tags omitted). Residues count along the entry.
UniProt O95166: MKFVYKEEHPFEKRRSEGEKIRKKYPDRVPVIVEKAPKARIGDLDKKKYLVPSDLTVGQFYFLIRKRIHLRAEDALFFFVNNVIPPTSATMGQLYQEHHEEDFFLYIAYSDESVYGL
UniProt Q9BXW4, residues 1-126: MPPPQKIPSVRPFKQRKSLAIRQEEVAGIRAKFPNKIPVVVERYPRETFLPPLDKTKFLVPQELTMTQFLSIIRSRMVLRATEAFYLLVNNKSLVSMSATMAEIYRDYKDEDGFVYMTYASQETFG

Assays:
Assay in all cases: co-IP
GFP-LC3A (human) [1] = target: GFP-LC3A (human) (UniProt Q9H492)
GFP-GABARAP (human) [2] = target: GFP-GABARAP (human) (UniProt O95166)
GFP-LC3C (human) [3] = target: GFP-LC3C (human) (UniProt Q9BXW4)
[4] = target: T1, GFP-LMX1A (TRE-GFP-LMX1A) (human) (UniProt Q8TE12)
T1 sequence: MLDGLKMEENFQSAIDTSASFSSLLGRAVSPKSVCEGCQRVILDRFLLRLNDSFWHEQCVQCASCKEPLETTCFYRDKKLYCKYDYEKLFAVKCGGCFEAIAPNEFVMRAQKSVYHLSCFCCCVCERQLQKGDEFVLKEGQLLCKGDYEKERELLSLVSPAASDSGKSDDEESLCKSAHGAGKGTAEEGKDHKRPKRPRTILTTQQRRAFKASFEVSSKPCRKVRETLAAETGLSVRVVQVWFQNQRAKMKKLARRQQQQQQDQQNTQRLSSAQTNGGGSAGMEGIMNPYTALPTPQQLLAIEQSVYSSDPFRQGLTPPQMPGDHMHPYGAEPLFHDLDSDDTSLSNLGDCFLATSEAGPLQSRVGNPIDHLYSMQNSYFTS

GFP-LC3A (human) [5] = target: GFP-LC3A (human) (UniProt Q9H492); remark: listed apart in the source
GFP-GABARAP (human) [6] = target: GFP-GABARAP (human) (UniProt O95166); remark: listed apart in the source
GFP-LC3C (human) [7] = target: GFP-LC3C (human) (UniProt Q9BXW4); remark: listed apart in the source

For “LMX1B-FLAG (from UniProt O60663-1 1-402)”, the binding (GFP-LC3A (human) [1]) was “binds”, the binding (GFP-GABARAP (human) [2]) was “binds” and the binding (GFP-LC3C (human) [3]) was “binds”.

With “mCherry-LMX1B (TRE-mCherry-LMX1B) (from UniProt O60663-1 1-402)” the binding [4] was “binds”.

B1: LIR mutant (Y309A/L312A) LMX1B-FLAG (protein, UniProt O60663-1 1-402)
chain: MDIATGPESLERCFPRGQTDCAKMLDGIKMEEHALRPGPATLGVLLGSDCPHPAVCEGCQRPISDRFLMRVNESSWHEECLQCAACQQALTTSCYFRDRKLYCKQDYQQLFAAKCSGCMEKIAPTEFVMRALECVYHLGCFCCCVCERQLRKGDEFVLKEGQLLCKGDYEKEKDLLSSVSPDESDSVKSEDEDGDMKPAKGQGSQSKGSGDDGKDPRRPKRPRTILTTQQRRAFKASFEVSSKPCRKVRETLAAETGLSVRVVQVWFQNQRAKMKKLARRHQQQQEQQNSQRLGQEVLSSRMEGMMASATPAAPPQQQIVAMEQSPYGSSDPFQQGLTPPQMPGDHMNPYGNDSIFHDIDSDTSLTSLSDCFLGSSDVGSLQARVGNPIDRLYSMQSSYFAS
In the case of B1, the binding (GFP-LC3A (human) [5]) is reported as “binds”, the binding (GFP-GABARAP (human) [6]) is reported as “binds” and the binding (GFP-LC3C (human) [7]) is reported as “binds”.
